Reference: patent US20190330358A1
These are yes or no findings as the source states them, for the method shown. Some results given as binding are weak or reduced against the parent protein; the word gives no strength. Sequences can lack the tags named with a protein.

Target: T1, Glutathione S-transferase (GST)-tagged AITR (human) (UniProt Q9Y5U5)
T1 sequence (looked up): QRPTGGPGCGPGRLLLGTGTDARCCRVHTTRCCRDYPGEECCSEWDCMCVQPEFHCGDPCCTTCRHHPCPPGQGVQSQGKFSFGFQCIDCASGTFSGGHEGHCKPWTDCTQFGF
Test: SPR (Biacore T200), captured antibody, GST-AITR analyte

B1: H1F1.M69 (H1F1.H2.J1/H1F1.L3.J1) (antibody, V domains shown)
VH: QVQLVQSGAQVKMPGESLKVSCKASGYTFTDYGMGWVRQAPGQGLEWMGWISPYTGRTNSSDKFQGRVTMTRDTSTSTAYMELRSLRSEDTAVYYCARDGTYYDFWSGYFDNNAFDIWGQGTLVTVSS
VL: QSVVTQPPSVSGAPGQRVTISCSGSTSNIGNNYVSWYQQLPGTAPKLLIYDNYKRPSGVPDRFSGSKSGTSASLAITGLQTEDEADYYCGTWDSSLNAWVFGGGTKLTVL
binding: binds
